Laboratory results reported in patent US20090191181A1.
No constants are given. Whether binding was seen depends on the method and setting. In cells and extracts the contact can be indirect. Some entries that bind do so weakly or less than the wild type. For some assays here: Where a sequence is shown, tags or fusion partners need not be part of it.

T1: RB1 (endogenous, in lysates of HepG2 or HCT116 cells) (human) (UniProt P06400)
T1 sequence: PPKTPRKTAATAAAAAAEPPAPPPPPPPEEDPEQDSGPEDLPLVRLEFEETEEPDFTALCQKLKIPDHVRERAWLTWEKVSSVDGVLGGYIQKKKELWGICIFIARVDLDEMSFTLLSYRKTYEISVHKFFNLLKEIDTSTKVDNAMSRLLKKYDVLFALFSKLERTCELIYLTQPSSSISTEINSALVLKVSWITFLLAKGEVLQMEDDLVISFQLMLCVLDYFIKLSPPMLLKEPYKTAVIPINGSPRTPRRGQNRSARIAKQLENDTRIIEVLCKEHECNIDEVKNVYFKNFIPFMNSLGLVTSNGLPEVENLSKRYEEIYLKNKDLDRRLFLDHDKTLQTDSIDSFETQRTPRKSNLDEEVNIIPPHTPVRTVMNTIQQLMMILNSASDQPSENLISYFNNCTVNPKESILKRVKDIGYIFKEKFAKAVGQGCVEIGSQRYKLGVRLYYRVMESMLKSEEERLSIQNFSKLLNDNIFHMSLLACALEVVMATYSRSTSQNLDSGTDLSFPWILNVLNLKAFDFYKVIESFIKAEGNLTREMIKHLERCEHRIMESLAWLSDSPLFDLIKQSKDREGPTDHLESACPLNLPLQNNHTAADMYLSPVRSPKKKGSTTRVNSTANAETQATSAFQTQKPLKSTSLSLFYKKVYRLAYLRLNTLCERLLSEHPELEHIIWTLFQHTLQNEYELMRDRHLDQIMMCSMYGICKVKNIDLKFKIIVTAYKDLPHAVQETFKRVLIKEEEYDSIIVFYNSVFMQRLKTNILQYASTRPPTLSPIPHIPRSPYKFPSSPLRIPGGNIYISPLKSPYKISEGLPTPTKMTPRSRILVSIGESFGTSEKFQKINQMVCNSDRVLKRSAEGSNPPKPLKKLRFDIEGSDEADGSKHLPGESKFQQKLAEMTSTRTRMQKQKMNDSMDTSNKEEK

T2: Flag-tagged RB1 C-terminal substrate domain (codons 772-928) (Homo sapiens (Human)) (UniProt P06400)
T2 sequence: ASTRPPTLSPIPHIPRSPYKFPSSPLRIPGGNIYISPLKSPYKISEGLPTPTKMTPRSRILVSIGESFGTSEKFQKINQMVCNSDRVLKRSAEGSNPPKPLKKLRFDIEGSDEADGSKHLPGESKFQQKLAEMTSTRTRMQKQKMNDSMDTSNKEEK


Experiments:
[1] = biological target: T1, RB1 (endogenous, in lysates of HepG2 or HCT116 cells) (human); experiment: co-immunoprecipitation of endogenous proteins, immunoblot (FIG. 2a)
[2] = biological target: T2, Flag-tagged RB1 C-terminal substrate domain (codons 772-928) (Homo sapiens (Human)); experiment: co-immunoprecipitation with anti-Flag antibody from HEK293 cells (FIG. 2b)

| binding [1] | binding [2] | Binder |
| --- | --- | --- |
| binds | – | SMYD3 (endogenous, in lysates of HepG2 or HCT116 cells) (enzyme) MEPLKVEKFATANRGNGLRAVTPLRPGELLFRSDPLAYTVCKGSRGVVCDRCLLGKEKLMRCSQCRVAKYCSAKCQKKAWPDHKRECKCLKSCKPRYPPDSVRLLGRVVFKLMDGAPSESEKLYSFYDLESNINKLTEDKKEGLRQLVMTFQHFMREEIQDASQLPPAFDLFEAFAKVICNSFTICNAEMQEVGVGLYPSISLLNHSCDPNCSIVFNGPHLLLRAVRDIEVGEELTICYLDMLMTSEERRKQLRDQYCFECDCFRCQTQDKDADMLTGDEQVWKEVQESLKKIEELKAHWKWEQVLAMCQAIISSNSERLPDINIYQLKVLDCAMDACINLGLLEEALFYGTRTMEPYRIFFPGSHPVRGVQVMKVGKLQLHQGMFPQAMKNLRLAFDIMRVTHGREHSLIEDLILLLEECDANIRAS |
| – | binds | HA-tagged SMYD3 (wild type) (enzyme, not shown: small tags and cut ends) MEPLKVEKFATANRGNGLRAVTPLRPGELLFRSDPLAYTVCKGSRGVVCDRCLLGKEKLMRCSQCRVAKYCSAKCQKKAWPDHKRECKCLKSCKPRYPPDSVRLLGRVVFKLMDGAPSESEKLYSFYDLESNINKLTEDKKEGLRQLVMTFQHFMREEIQDASQLPPAFDLFEAFAKVICNSFTICNAEMQEVGVGLYPSISLLNHSCDPNCSIVFNGPHLLLRAVRDIEVGEELTICYLDMLMTSEERRKQLRDQYCFECDCFRCQTQDKDADMLTGDEQVWKEVQESLKKIEELKAHWKWEQVLAMCQAIISSNSERLPDINIYQLKVLDCAMDACINLGLLEEALFYGTRTMEPYRIFFPGSHPVRGVQVMKVGKLQLHQGMFPQAMKNLRLAFDIMRVTHGREHSLIEDLILLLEECDANIRAS |
